This is an account of results in paper PMC10135883, “Structural Basis of the Interaction between Human Axin2 and SIAH1 in the Wnt/β-Catenin Signaling Pathway” (Biomolecules, 2023).

No constants are given. Whether binding was seen depends on the method and setting.

In this test the target is GST-Axin2-GBDΔ (Axin2-GBD with deletion of 361EMTPVEPA368) (human) (UniProt Q9Y2T1). The test is described as follows: BLI; Octet Red96; GST-Axin2-GBD or its deletion loaded onto GST biosensors, quenched with GST; dipped into SIAH1-SBD at 0.03-30 μM; free-GST biosensors as controls; both purified.

B1: SIAH1-SBD (substrate-binding domain of E3 ubiquitin-protein ligase SIAH1, residues 89-282) (domain or fragment, UniProt Q8IUQ4-1 89-282)
chain: KVANSVLFPCKYASSGCEITLPHTEKADHEELCEFRPYSCPCPGASCKWQGSLDAVMPHLMHQHKSITTLQGEDIVFLATDINLPGAVDWVMMQSCFGFHFMLVLEKQEKYDGHQQFFAIVQLIGTRKQAENFAYRLELNGHRRRLTWEATPRSIHEGIATAIMNSDCLVFDTSIAQLFAENGNLGINVTISMC
In the case of B1, the binding result is “no binding (tested: 30 μM)”.
